PubChem BioAssay AID1259275, Sanger Institute | 2017
The whole screen tested 794 reagents; shown is a random part of them. 13 of them (1.6%) were called active. 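Calls mark knock-downs lethal by themselves, not drug synergy; drugs went in a day after transfection, with DMSO as vehicle.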 Further read-outs or replicates are left out here. The record does not give: the amount of reagent, the time to read-out.

- Screen: 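Knock-downs that cut viability on their own or combined with BYL719, cetuximab or trametinib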 (primary screen)
- Cells: COLO320HSR human colorectal cancer cells
- Reagents: siRNA pool against human genes
- Treatment: anchor drug added one day after transfection: BYL719 at 1 µM, cetuximab at 5 µg/ml or trametinib at 10 nM; DMSO as vehicle arm
- Detection: 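Viability averaged over replicates as a fraction of the non-targeting pool, a robust z-score for knock-down alone, and synergy scores with BYL719 (1 µM), cetuximab (5 µg/ml) or trametinib (10 nM)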
- Reading the numbers: robust z-score, siRNA alone: higher = more viable cells; strongly negative means essential
- Active means: 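Essential means the knock-down by itself gives a robust z-score lower than -3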
- Meaning of the calls: active = essential (siRNA alone); inactive = no change (siRNA alone)

GRK5: robust z-score, siRNA alone = 0.726; Call = inactive
CILK1: robust z-score, siRNA alone = 0.143; Call = inactive
PKN1: robust z-score, siRNA alone = 0.726; Call = inactive
MPP2: robust z-score, siRNA alone = 0.726; Call = inactive
STK24: robust z-score, siRNA alone = 0.446; Call = inactive
EIF2AK1: robust z-score, siRNA alone = 0.726; Call = inactive
CDC42BPA: robust z-score, siRNA alone = -0.301; Call = inactive
ITPK1: robust z-score, siRNA alone = 0.726; Call = inactive
PIK3R4: robust z-score, siRNA alone = 0.207; Call = inactive
EEF2K: robust z-score, siRNA alone = -0.364; Call = inactive
CAMKK2: robust z-score, siRNA alone = 0.726; Call = inactive
PIK3CB: robust z-score, siRNA alone = 0.411; Call = inactive
